Patent publication US20200038478A1 (WUHAN GRECTECH CO., LTD., priority 2017, published 2020)
End groups of sequences in plain letters are not given here.

Assay: general procedure: Fmoc solid-phase peptide synthesis; HBTU/HOBt
Conditions: oxidative folding step, several disulfide bridges, sequence written open

Row | Sequence | final HPLC purity [%]
1 | ASCNGVCSPFEMPPCGSSACRCIPVGLVVGYCRNPSG | ≥98
2 | ASCNGVCSPFEMPPCGTSACRCIPVGLVVGYCRNPSG | ≥98
